Experimental data: patent publication US20090068182A1 (ARIUS RESEARCH, published 2009)
These are yes or no findings as the source states them, for the method shown. Some entries that bind do so weakly or less than the wild type.

How the values were obtained:
[1] = target: AR40A746.2.3 antigen (CD9) in cynomolgus monkey normal tissues (cynomolgus monkey); experiment: IHC on normal spleen tissue
[2] = target: AR40A746.2.3 antigen (CD9) in cynomolgus monkey normal tissues (cynomolgus monkey); experiment: IHC on normal tissue micro arrays, 5 micrograms/mL

B1: AR40A746.2.3 monoclonal antibody (hybridoma IDAC 141204-01) (antibody, V domains shown)
VH: DVQLQESGPGLVKPSQSLSLTCTVTGYSITSDYAWNWIRQFPGNKLEWMGYISYSGFTNYNPSLKSRISITRDTSKNQFFLQLSSVTTEDTATYFCEGGNYRYSWFPYWGQGTLVTVSA
VL: DIQMTQTTSSLSASLGDRVTISCSASQGISNYLNWYQQKPDGNVKLLIYYTSSLHSGVPSRFSGSGSGTDYSLTISNLEPEDIATYYCQQYSKLPYTFGGGTKLEIKR
notes: also called IDAC 141204-01 antibody; mAR40A746.2.3
- binding [1]: binds
- binding [2]: binds
